The supplement of paper PMC8728848
The list shows a part of the results.

Tests used:
Test in all cases: glycan array binding signal (z-score within array); higher = stronger binding
Conditions in all cases: glycan notation: IUPAC condensed, linker removed
[1] = biological target: Gal3S4S(b1-4)GlcNAc
Procedure, shortened: (§1)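 The Consortium for Functional Glycomics database supplied 3228 glycan arrays, of which those lacking an available protein sequence were dropped. The binding signal, a within-array Z-score, was averaged across arrays of the same protein sequence and across linkers. Negative scores can be read as non-binding.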

[2] = biological target: Gal3S6S(b1-4)GlcNAc
Procedure, shortened: as §1

[3] = biological target: Gal3S6S(b1-4)GlcNAc6S
Procedure, shortened: as §1

[4] = biological target: Gal4S(b1-4)GlcNAc
Procedure, shortened: as §1

[5] = biological target: Gal4S6S(b1-4)GlcNAc
Procedure, shortened: as §1

[6] = biological target: Gal6P(b1-4)GlcNAc
Procedure, shortened: as §1

[7] = biological target: Gal6S(b1-3)GlcNAc
Procedure, shortened: as §1

[8] = biological target: Gal6S(b1-3)GlcNAc6S
Procedure, shortened: as §1

[9] = biological target: Gal6S(b1-4)Glc
Procedure, shortened: as §1

[10] = biological target: Gal6S(b1-4)Glc6S
Procedure, shortened: as §1

[11] = biological target: Gal6S(b1-4)GlcNAc
Procedure, shortened: as §1

[12] = biological target: Gal6S(b1-4)GlcNAc6S
Procedure, shortened: as §1

[13] = biological target: GalNAc(a1-3)Gal
Procedure, shortened: as §1

[14] = biological target: GalNAc(a1-3)GalNAc
Procedure, shortened: as §1

[15] = biological target: GalNAc(a1-3)GalNAc(b1-3)Gal(a1-4)Gal(b1-4)Glc
Procedure, shortened: as §1

[16] = biological target: GalNAc(a1-3)GalNAc(b1-3)Gal(a1-4)Gal(b1-4)GlcNAc
Procedure, shortened: as §1

[17] = biological target: GalNAc(b1-3)Gal
Procedure, shortened: as §1

[18] = biological target: GalNAc(b1-3)Gal(a1-4)Gal(b1-4)GlcNAc
Procedure, shortened: as §1

[19] = biological target: GalNAc(b1-3)Gal(a1-4)Gal(b1-4)GlcNAc(b1-3)Gal(b1-4)Glc
Procedure, shortened: as §1

[20] = biological target: GalNAc(b1-3)Gal(a1-6)Gal(b1-4)Glc
Procedure, shortened: as §1

[21] = biological target: GalNAc(b1-3)GalNAc
Procedure, shortened: as §1

[22] = biological target: GalNAc(b1-4)Gal(b1-4)Glc
Procedure, shortened: as §1

[23] = biological target: GalNAc(b1-4)GlcNAc
Procedure, shortened: as §1

[24] = biological target: GalNAc(b1-4)GlcNAc(b1-2)Man(a1-3)[GalNAc(b1-4)GlcNAc(b1-2)Man(a1-6)]Man(b1-4)GlcNAc(b1-4)GlcNAc
Procedure, shortened: as §1

[25] = biological target: GalNAc(b1-4)GlcNAc6S
Procedure, shortened: as §1

[26] = biological target: GalNAc(b1-6)GalNAc
Procedure, shortened: as §1

[27] = biological target: GalNAc3S(b1-4)GlcNAc
Procedure, shortened: as §1

[28] = biological target: GalNAc3S(b1-4)GlcNAc3S
Procedure, shortened: as §1

[29] = biological target: GalNAc4S6S(b1-4)GlcNAc
Procedure, shortened: as §1

[30] = biological target: GalNAc6S(b1-4)GlcNAc
Procedure, shortened: as §1

[31] = biological target: Glc(a1-4)Glc
Procedure, shortened: as §1

[32] = biological target: Glc(a1-4)Glc(a1-4)Glc(a1-4)Glc
Procedure, shortened: as §1

[33] = biological target: Glc(a1-6)Glc(a1-6)Glc
Procedure, shortened: as §1

[34] = biological target: Glc(a1-6)Glc(a1-6)Glc(a1-6)Glc
Procedure, shortened: as §1

[35] = biological target: Glc(b1-4)Glc
Procedure, shortened: as §1

[36] = biological target: Glc(b1-6)Glc
Procedure, shortened: as §1

[37] = biological target: GlcA(b1-3)Gal
Procedure, shortened: as §1

[38] = biological target: GlcA(b1-3)GlcNAc
Procedure, shortened: as §1

[39] = biological target: GlcA(b1-6)Gal
Procedure, shortened: as §1

[40] = biological target: GlcNAc(a1-3)Gal(b1-4)GlcNAc
Procedure, shortened: as §1

[41] = biological target: GlcNAc(a1-4)Gal(b1-3)GlcNAc
Procedure, shortened: as §1

[42] = biological target: GlcNAc(a1-4)Gal(b1-4)GalNAc
Procedure, shortened: as §1

[43] = biological target: GlcNAc(a1-4)Gal(b1-4)GlcNAc
Procedure, shortened: as §1

[44] = biological target: GlcNAc(a1-4)Gal(b1-4)GlcNAc(b1-3)Gal(b1-4)Glc
Procedure, shortened: as §1

[45] = biological target: GlcNAc(a1-4)Gal(b1-4)GlcNAc(b1-3)Gal(b1-4)GlcNAc
Procedure, shortened: as §1

B1: Latrophilin-3 (Homo sapiens), Q9HAR2 (protein)
chain: MWPSQLLIFMMLLAPIIHAFSRAPIPMAVVRRELSCESYPIELRCPGTDVIMIESANYGRTDDKICDSDPAQMENIRCYLPDAYKIMSQRCNNRTQCAVVAGPDVFPDPCPGTYKYLEVQYECVPYKVEQKVFLCPGLLKGVYQSEHLFESDHQSGAWCKDPLQASDKIYYMPWTPYRTDTLTEYSSKDDFIAGRPTTTYKLPHRVDGTGFVVYDGALFFNKERTRNIVKFDLRTRIKSGEAIIANANYHDTSPYRWGGKSDIDLAVDENGLWVIYATEQNNGKIVISQLNPYTLRIEGTWDTAYDKRSASNAFMICGILYVVKSVYEDDDNEATGNKIDYIYNTDQSKDSLVDVPFPNSYQYIAAVDYNPRDNLLYVWNNYHVVKYSLDFGPLDSRSGQAHHGQVSYISPPIHLDSELERPSVKDISTTGPLGMGSTTTSTTLRTTTLSPGRSTTPSVSGRRNRSTSTPSPAVEVLDDMTTHLPSASSQIPALEESCEAVEAREIMWFKTRQGQIAKQPCPAGTIGVSTYLCLAPDGIWDPQGPDLSNCSSPWVNHITQKLKSGETAANIARELAEQTRNHLNAGDITYSVRAMDQLVGLLDVQLRNLTPGGKDSAARSLNKAMVETVNNLLQPQALNAWRDLTTSDQLRAATMLLHTVEESAFVLADNLLKTDIVRENTDNIKLEVARLSTEGNLEDLKFPENMGHGSTIQLSANTLKQNGRNGEIRVAFVLYNNLGPYLSTENASMKLGTEALSTNHSVIVNSPVITAAINKEFSNKVYLADPVVFTVKHIKQSEENFNPNCSFWSYSKRTMTGYWSTQGCRLLTTNKTHTTCSCNHLTNFAVLMAHVEVKHSDAVHDLLLDVITWVGILLSLVCLLICIFTFCFFRGLQSDRNTIHKNLCISLFVAELLFLIGINRTDQPIACAVFAALLHFFFLAAFTWMFLEGVQLYIMLVEVFESEHSRRKYFYLVGYGMPALIVAVSAAVDYRSYGTDKVCWLRLDTYFIWSFIGPATLIIMLNVIFLGIALYKMFHHTAILKPESGCLDNIKSWVIGAIALLCLLGLTWAFGLMYINESTVIMAYLFTIFNSLQGMFIFIFHCVLQKKVRKEYGKCLRTHCCSGKSTESSIGSGKTSGSRTPGRYSTGSQSRIRRMWNDTVRKQSESSFITGDINSSASLNREGLLNNARDTSVMDTLPLNGNHGNSYSIASGEYLSNCVQIIDRGYNHNETALEKKILKELTSNYIPSYLNNHERSSEQNRNLMNKLVNNLGSGREDDAIVLDDATSFNHEESLGLELIHEESDAPLLPPRVYSTENHQPHHYTRRRIPQDHSESFFPLLTNEHTEDLQSPHRDSLYTSMPTLAGVAATESVTTSTQTEPPPAKCGDAEDVYYKSMPNLGSRNHVHQLHTYYQLGRGSSDGFIVPPNKDGTPPEGSSKGPAHLVTSL
- glycan array binding signal (z-score) [1]: 1.34
- glycan array binding signal (z-score) [2]: -0.23
- glycan array binding signal (z-score) [3]: -0.592
- glycan array binding signal (z-score) [4]: -1.01
- glycan array binding signal (z-score) [5]: -0.765
- glycan array binding signal (z-score) [6]: 1.03
- glycan array binding signal (z-score) [7]: 0.183
- glycan array binding signal (z-score) [8]: -0.155
- glycan array binding signal (z-score) [9]: -0.961
- glycan array binding signal (z-score) [10]: -0.249
- glycan array binding signal (z-score) [11]: -0.387
- glycan array binding signal (z-score) [12]: 0.338
- glycan array binding signal (z-score) [13]: -0.937
- glycan array binding signal (z-score) [14]: -0.675
- glycan array binding signal (z-score) [15]: -1.16
- glycan array binding signal (z-score) [16]: -1.31
- glycan array binding signal (z-score) [17]: 0.242
- glycan array binding signal (z-score) [18]: -1.27
- glycan array binding signal (z-score) [19]: 2.19
- glycan array binding signal (z-score) [20]: -0.194
- glycan array binding signal (z-score) [21]: 0.417
- glycan array binding signal (z-score) [22]: -1.53
- glycan array binding signal (z-score) [23]: 0.957
- glycan array binding signal (z-score) [24]: 0.616
- glycan array binding signal (z-score) [25]: -0.194
- glycan array binding signal (z-score) [26]: 1.6
- glycan array binding signal (z-score) [27]: 0.63
- glycan array binding signal (z-score) [28]: 0.37
- glycan array binding signal (z-score) [29]: 1.42
- glycan array binding signal (z-score) [30]: 3.81
- glycan array binding signal (z-score) [31]: -0.053
- glycan array binding signal (z-score) [32]: -0.335
- glycan array binding signal (z-score) [33]: -0.086
- glycan array binding signal (z-score) [34]: -0.465
- glycan array binding signal (z-score) [35]: -0.632
- glycan array binding signal (z-score) [36]: -0.237
- glycan array binding signal (z-score) [37]: -0.001
- glycan array binding signal (z-score) [38]: -1.03
- glycan array binding signal (z-score) [39]: 1.65
- glycan array binding signal (z-score) [40]: -0.933
- glycan array binding signal (z-score) [41]: 0.839
- glycan array binding signal (z-score) [42]: -0.452
- glycan array binding signal (z-score) [43]: -0.448
- glycan array binding signal (z-score) [44]: -1.34
- glycan array binding signal (z-score) [45]: 1.28
